Binding data for two molecules are collected here from PMC10577574.

The chains behind the UniProt entries cited, without tags or fusion partners. Residues count along the entry.
UniProt P05067, residues 18-770: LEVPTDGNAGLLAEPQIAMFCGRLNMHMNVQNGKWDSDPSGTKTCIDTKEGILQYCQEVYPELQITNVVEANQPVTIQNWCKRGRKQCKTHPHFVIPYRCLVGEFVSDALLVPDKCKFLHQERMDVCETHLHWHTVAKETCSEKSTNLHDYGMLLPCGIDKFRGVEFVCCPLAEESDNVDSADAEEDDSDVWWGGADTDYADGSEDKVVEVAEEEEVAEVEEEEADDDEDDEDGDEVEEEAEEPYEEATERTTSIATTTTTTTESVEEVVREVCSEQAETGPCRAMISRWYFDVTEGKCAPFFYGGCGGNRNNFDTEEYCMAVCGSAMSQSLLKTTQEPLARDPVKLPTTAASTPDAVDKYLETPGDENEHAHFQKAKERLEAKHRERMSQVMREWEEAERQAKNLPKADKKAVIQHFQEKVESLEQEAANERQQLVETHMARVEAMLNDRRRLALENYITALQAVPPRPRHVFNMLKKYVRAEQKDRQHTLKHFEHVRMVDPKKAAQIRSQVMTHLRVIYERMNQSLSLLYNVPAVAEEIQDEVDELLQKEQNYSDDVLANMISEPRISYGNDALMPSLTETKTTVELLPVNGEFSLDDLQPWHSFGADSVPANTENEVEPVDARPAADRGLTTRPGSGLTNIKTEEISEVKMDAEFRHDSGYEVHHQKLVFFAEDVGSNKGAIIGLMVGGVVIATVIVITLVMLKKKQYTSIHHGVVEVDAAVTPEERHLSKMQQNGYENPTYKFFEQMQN

Results are given in words; binding and its absence hold for the method and conditions named. In cells and extracts the contact can be indirect. Some entries that bind do so weakly or less than the wild type. For some assays here: Tags and fused reporters may be left off the sequences shown.

Assay [1] concerns the target APP in HEK293T cells (co-IPs of Figure 3f,g and 3j) (UniProt P05067). Nature of the assay: co-IP; Myc-tagged SIRT2 and APP, with or without Flag-tagged SIRT1, in HEK293T cells.
Assay [2] concerns the target APP in HEK293 WT or SIRT1 KO cells (UniProt P05067). As to the kind of experiment: co-IP; SIRT2 and APP in WT or SIRT1 KO HEK293 cells.

B1: Myc-tagged SIRT2, in HEK293T cells (enzyme, UniProt Q8IXJ6 1-389)
chain: MAEPDPSHPLETQAGKVQEAQDSDSDSEGGAAGGEADMDFLRNLFSQTLSLGSQKERLLDELTLEGVARYMQSERCRRVICLVGAGISTSAGIPDFRSPSTGLYDNLEKYHLPYPEAIFEISYFKKHPEPFFALAKELYPGQFKPTICHYFMRLLKDKGLLLRCYTQNIDTLERIAGLEQEDLVEAHGTFYTSHCVSASCRHEYPLSWMKEKIFSEVTPKCEDCQSLVKPDIVFFGESLPARFFSCMQSDFLKVDLLLVMGTSLQVQPFASLISKAPLSTPRLLINKEKAGQSDPFLGMIMGLGGGMDFDSKKAYRDVAWLGECDQGCLALAELLGWKKELEDLVRREHASIDAQSGAGVPNPSTSASPKKSPPPAKDEARTTEREKPQ
On to B1, for which the binding entry in assay [1] is “binds”.

B2: SIRT2 in HEK293 WT or SIRT1 KO cells (enzyme, UniProt Q8IXJ6 1-389)
chain: B1 chain
For B2, the binding entry in assay [2] was “binds”.
